Experimental data published in article PMC11972380.
Results are given in words; binding and its absence hold for the method and conditions named. In cells and extracts the contact can be indirect. Some results given as binding are weak or reduced against the parent protein; the word gives no strength.

Chains of the proteins cited; added tags and fusions are not shown. Residues count along the entry.
UniProt Q9Y6N7, residues 26-1651: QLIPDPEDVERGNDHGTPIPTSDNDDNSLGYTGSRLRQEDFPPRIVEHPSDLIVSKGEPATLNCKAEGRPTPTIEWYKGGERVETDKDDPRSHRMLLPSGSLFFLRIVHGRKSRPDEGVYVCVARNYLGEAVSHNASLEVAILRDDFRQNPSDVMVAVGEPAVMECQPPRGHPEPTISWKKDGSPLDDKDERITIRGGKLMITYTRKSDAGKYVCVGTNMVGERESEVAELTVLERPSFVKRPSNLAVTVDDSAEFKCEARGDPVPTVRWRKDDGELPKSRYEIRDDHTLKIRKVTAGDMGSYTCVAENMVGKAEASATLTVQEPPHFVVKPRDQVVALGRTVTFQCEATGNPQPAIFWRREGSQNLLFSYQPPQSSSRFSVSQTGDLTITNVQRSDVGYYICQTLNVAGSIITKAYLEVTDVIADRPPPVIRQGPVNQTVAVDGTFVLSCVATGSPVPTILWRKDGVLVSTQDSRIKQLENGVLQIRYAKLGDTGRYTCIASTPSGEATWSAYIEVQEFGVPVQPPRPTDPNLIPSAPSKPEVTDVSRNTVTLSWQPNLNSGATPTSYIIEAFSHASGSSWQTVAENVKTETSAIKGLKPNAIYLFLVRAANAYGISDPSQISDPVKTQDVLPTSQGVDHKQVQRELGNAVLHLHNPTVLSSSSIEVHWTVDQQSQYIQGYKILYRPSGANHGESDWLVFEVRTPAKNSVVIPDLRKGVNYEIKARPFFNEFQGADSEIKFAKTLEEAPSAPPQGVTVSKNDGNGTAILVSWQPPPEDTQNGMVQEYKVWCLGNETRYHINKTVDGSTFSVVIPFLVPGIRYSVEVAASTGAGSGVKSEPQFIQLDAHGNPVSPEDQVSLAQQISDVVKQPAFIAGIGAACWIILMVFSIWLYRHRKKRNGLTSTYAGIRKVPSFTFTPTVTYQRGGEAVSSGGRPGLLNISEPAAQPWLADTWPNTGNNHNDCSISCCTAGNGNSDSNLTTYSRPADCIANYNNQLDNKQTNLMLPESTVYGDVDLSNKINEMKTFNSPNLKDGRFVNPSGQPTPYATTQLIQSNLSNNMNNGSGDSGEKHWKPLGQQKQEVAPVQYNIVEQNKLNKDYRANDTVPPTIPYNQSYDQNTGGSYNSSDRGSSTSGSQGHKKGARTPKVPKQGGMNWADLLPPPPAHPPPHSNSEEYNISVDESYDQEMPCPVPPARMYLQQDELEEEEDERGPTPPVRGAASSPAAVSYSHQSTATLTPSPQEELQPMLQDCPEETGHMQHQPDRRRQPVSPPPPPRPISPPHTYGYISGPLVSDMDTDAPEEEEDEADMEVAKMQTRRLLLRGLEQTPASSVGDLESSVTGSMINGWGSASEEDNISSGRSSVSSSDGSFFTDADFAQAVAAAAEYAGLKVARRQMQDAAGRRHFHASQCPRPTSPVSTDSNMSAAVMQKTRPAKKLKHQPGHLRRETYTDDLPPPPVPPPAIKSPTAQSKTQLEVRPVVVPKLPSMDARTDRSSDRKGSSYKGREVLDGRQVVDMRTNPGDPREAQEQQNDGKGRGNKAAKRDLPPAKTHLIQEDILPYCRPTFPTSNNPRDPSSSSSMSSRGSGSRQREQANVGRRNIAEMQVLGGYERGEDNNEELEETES

Key:
[1] = molecular target: roundabout guidance receptor 1 (ROBO1) (human (endogenous in KYSE450 and TE1)) (UniProt Q9Y6N7); experiment: co-IP; endogenous proteins; ESCC cell lysates (KYSE450, TE1) incubated with anti-ROBO1 antibodies, IgG as control, Protein A + G agarose beads, Western blot
[2] = molecular target: roundabout guidance receptor 1 (ROBO1) (human (endogenous in KYSE450 and TE1)) (UniProt Q9Y6N7); experiment: co-IP; endogenous proteins in ESCC cells (Fig. 4B); the precipitating antibody is not told in the text or legend; IgG as control, Protein A + G agarose beads, Western blot

B1: G3BP2 (Ras GTPase-activating protein-binding protein 2) (protein, UniProt Q9UN86 1-482)
chain: MVMEKPSPLLVGREFVRQYYTLLNKAPEYLHRFYGRNSSYVHGGVDASGKPQEAVYGQNDIHHKVLSLNFSECHTKIRHVDAHATLSDGVVVQVMGLLSNSGQPERKFMQTFVLAPEGSVPNKFYVHNDMFRYEDEVFGDSEPELDEESEDEVEEEQEERQPSPEPVQENANSGYYEAHPVTNGIEEPLEESSHEPEPEPESETKTEELKPQVEEKNLEELEEKSTTPPPAEPVSLPQEPPKAFSWASVTSKNLPPSGTVSSSGIPPHVKAPVSQPRVEAKPEVQSQPPRVREQRPRERPGFPPRGPRPGRGDMEQNDSDNRRIIRYPDSHQLFVGNLPHDIDENELKEFFMSFGNVVELRINTKGVGGKLPNFGFVVFDDSEPVQRILIAKPIMFRGEVRLNVEEKKTRAARERETRGGGDDRRDIRRNDRGPGGPRGIVGGGMMRDRDGRGPPPRGGMAQKLGSGRGTGQMEGRFTGQRR
binding [1]: binds
binding [2]: binds
